From patent US10947289B2 (priority 2013, dated 2021)

Test: general procedure: Fmoc solid-phase peptide synthesis; 2-chlorotrityl chloride resin; HATU / N,N-diisopropylethylamine
Details: whole synthesis

Substance	isolated mass (scale 0.25 mmol)	isolated yield (scale 0.25 mmol)	crude mass (scale 0.200 mmol)	crude yield (scale 0.200 mmol)
2-[[(2R)-2-[[2-[[(2R)-2-[[2-[[(2R)-2-acetamido-3-sulfanylpropanoyl]amino]acetyl]amino]-3-sulfanylpropanoyl]amino]acetyl]amino]-3-sulfanylpropanoyl]amino]acetic acid	11 mg	16%	–	–
2-[[(2S)-2-[[2-[[(2S)-2-[[2-[[(2S)-2-amino-3-tert-butoxy-propanoyl]amino]acetyl]amino]-3-tert-butoxy-propanoyl]amino]acetyl]amino]-3-tert-butoxy-propanoyl]amino]acetic Acid	–	–	120 mg	97%
